# Data as given in PubChem BioAssay AID2662 (National Center for Advancing Translational Sciences (NCATS), 2010).
# By UniProt entry, the sequences of proteins in these tests, tags left out.
# UniProt Q03164, whole entry, looked up: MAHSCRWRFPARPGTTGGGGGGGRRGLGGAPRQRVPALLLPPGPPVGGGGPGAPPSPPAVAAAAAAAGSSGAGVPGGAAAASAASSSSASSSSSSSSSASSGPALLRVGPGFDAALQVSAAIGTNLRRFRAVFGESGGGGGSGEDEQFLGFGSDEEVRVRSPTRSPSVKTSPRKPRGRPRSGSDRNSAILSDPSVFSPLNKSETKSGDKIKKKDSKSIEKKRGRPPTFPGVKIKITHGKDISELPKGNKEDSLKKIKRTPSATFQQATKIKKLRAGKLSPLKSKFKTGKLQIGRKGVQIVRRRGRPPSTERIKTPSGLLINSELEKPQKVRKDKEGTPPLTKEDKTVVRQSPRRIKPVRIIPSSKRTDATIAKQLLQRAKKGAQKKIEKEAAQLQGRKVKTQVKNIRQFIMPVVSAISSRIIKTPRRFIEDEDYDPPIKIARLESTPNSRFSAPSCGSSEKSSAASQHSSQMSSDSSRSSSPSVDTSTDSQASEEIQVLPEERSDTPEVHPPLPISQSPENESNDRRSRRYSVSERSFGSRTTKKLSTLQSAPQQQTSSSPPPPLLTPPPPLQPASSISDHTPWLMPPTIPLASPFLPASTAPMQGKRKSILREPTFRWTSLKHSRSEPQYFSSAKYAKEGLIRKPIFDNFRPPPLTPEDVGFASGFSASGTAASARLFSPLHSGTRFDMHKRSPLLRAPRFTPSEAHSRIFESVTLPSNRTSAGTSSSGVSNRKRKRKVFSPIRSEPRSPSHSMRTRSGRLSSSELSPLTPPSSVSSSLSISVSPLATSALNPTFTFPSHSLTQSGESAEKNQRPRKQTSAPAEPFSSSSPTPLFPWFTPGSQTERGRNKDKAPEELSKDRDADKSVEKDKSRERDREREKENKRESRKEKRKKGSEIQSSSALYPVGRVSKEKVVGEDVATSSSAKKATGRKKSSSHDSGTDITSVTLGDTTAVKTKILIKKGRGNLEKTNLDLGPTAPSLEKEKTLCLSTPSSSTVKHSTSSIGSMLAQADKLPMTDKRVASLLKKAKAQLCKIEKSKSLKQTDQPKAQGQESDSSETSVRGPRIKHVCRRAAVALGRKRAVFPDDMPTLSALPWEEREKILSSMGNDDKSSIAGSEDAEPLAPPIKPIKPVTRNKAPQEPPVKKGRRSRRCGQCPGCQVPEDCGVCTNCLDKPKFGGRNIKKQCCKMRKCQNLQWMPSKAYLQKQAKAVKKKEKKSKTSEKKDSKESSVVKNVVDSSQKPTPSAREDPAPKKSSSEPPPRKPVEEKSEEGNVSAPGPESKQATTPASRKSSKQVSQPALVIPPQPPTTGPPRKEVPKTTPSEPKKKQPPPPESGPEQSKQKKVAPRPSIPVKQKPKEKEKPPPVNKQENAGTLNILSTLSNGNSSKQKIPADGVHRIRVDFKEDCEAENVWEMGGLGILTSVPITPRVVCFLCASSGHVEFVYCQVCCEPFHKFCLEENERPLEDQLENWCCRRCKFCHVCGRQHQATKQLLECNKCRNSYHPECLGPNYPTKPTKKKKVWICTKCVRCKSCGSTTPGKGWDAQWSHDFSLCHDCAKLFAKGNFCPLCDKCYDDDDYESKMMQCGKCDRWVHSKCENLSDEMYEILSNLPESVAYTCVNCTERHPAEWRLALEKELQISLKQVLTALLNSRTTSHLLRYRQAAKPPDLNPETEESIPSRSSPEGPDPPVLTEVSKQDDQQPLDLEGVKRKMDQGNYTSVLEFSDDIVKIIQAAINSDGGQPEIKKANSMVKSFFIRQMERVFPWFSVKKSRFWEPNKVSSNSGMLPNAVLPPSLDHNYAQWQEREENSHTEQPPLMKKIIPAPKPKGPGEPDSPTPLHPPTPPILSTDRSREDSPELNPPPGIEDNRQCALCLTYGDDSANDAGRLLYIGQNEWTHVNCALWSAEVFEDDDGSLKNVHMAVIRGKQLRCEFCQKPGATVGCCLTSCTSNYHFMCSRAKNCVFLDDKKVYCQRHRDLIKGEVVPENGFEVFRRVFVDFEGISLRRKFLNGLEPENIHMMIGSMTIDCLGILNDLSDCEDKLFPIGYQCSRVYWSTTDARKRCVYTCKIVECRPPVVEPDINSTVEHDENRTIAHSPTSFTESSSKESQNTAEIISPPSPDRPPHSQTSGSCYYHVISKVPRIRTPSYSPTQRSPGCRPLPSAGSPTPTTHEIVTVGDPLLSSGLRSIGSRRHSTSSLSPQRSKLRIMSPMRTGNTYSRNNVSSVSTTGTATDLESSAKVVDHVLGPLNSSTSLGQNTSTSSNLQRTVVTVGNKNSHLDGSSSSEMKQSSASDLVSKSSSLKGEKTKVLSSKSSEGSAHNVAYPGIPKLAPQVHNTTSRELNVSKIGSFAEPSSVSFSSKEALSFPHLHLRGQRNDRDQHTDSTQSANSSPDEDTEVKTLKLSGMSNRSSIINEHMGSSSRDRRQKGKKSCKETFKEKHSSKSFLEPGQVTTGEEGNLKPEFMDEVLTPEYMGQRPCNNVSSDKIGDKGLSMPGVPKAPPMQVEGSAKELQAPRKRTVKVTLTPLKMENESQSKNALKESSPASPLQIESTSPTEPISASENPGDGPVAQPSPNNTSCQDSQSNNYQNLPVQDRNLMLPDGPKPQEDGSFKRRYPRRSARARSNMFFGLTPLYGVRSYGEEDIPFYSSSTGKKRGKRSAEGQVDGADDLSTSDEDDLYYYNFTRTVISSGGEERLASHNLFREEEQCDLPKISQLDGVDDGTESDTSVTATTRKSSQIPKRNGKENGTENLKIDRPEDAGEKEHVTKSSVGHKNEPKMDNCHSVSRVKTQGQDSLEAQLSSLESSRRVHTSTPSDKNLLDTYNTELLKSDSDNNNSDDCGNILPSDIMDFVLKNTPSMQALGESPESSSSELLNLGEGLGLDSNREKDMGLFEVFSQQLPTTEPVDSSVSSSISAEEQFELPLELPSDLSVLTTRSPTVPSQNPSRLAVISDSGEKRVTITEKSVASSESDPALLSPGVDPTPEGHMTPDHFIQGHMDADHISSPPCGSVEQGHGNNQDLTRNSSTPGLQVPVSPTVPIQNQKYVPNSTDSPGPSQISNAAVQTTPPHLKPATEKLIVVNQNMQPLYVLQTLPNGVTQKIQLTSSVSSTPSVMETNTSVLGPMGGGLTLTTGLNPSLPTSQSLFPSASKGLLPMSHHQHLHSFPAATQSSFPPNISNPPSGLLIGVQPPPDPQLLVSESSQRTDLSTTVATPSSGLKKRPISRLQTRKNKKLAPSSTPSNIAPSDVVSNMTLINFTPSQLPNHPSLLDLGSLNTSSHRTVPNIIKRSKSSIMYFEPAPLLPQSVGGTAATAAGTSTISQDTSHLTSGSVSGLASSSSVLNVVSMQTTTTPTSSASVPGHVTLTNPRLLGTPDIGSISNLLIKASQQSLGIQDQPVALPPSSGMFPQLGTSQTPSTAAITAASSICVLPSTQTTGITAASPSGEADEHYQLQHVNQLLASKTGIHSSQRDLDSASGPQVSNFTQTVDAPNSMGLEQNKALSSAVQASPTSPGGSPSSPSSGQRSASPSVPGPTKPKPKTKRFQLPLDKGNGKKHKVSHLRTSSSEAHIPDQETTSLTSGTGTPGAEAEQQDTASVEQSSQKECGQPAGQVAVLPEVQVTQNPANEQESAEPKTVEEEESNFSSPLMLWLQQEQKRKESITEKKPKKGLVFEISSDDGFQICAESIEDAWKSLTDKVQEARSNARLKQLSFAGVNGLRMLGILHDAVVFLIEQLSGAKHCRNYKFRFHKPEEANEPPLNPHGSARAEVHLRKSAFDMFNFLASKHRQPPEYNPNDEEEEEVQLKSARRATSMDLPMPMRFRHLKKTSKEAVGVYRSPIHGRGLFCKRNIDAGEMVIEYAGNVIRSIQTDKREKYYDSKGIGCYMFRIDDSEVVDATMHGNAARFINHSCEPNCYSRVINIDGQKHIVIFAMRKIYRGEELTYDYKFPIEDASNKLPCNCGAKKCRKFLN
# About 110 (0.038%) of roughly 290,000 compounds were called active. The inconclusive results got no clear call from the source; some entries with a clear call stand among them for comparison. Calls come from the whole dose curve; as a rule, active = well fitted inhibition curve with a large enough effect in the polarisation, with a control signal flat (not every such curve was filed as active); inconclusive = small, poorly fitted or top-dose-only effect, or effect the other way, or a change in a side signal; inactive = no such curve, though single readings can be large or run the other way; the % refers to the polarisation. Potencies of inconclusive entries are doubtful fits and often do not repeat. A note “side channel” means that the fit belongs to a control or component signal, not to the main read-out.
# Target: Histone-lysine N-methyltransferase 2A (Homo sapiens) (UniProt Q03164)
# Assay: qHTS Fluorescence Polarization Assay for Inhibitors of MLL CXXC domain - DNA interaction
# Details: MLL-CXXC / FITC-HOXA9 DNA fluorescence polarization; activity change, negative = inhibition: at 115 µM (top of the series)
# Procedure, shortened: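 Purified MLL-CXXC (added from a 7 uM solution) was preincubated 5 min at ambient with pinned compounds in 50 mM Tris-HCl pH 7.5, 50 mM NaCl, 1 mM DTT, 0.05% BSA. Fluorescein-labeled HOX-A9 DNA (50 nM solution) followed, 30 min, then polarization read.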
# Potency is the fitted concentration of half-maximal effect.
SMILES,Potency,"activity change, negative = inhibition"
O=C(O)c1cccc(NC(=S)NC(NC(=O)c2ccco2)C(Cl)(Cl)Cl)c1 (configuration not stated),"inconclusive: 35.5 µM [inhibitor, single point]",
O=C(CCN1C(=O)/C(=C\c2cccc(Br)c2)SC1=S)N1CCOCC1,"inconclusive: 1.41 µM [quencher, side channel, full curve, poor fit]",
COc1ccccc1Oc1cn[nH]c1-c1ccc(O)cc1O,"inconclusive: 6.31 µM [inhibitor, single point]",
COC(=O)c1cc2c(=O)c3ccccc3oc2nc1/C=C/N(C)C,"inconclusive: 79.4 µM [fluorescent, side channel, partial curve, poor fit]",
O=C(NCCc1c[nH]c2ccccc12)N[C@@H](Cc1ccccc1)C(=O)O,"inconclusive: 44.7 µM [fluorescent, side channel, single point]",
COc1cc(C2C(C(=O)c3cc4ccccc4o3)=C(O)C(=O)N2CCN2CCOCC2)ccc1OCCC(C)C (configuration not stated),"inconclusive: 25.1 µM [inhibitor, partial curve]",
COc1ccc(NCC(=O)Nc2ccc(Br)cc2F)c(OC)c1,,inactive: -8.99%
O=C(CCN1C(=O)/C(=C/c2ccccc2Cl)SC1=S)Nc1ccccc1C(=O)O,"inconclusive: 35.5 µM [fluorescent, side channel, partial curve]",
Cc1cc(C)c(C(=O)C(C)OC(=O)C2=COCCO2)cc1C (configuration not stated),,inactive: 2.36%
COc1ccc(C(c2nnnn2C(C)(C)C)N2CCN(C(=O)c3ccco3)CC2)cc1 (configuration not stated),"inconclusive: 15.8 µM [fluorescent, side channel, single point]",
COc1ccc(/C=C/C(=O)O)cc1S(=O)(=O)N1CCCCC1,"inconclusive: 15.8 µM [inhibitor, single point]",
O=C(O)c1cccc(-c2ccc(/C=c3/sc4nc5ccccc5n4c3=O)o2)c1,"inconclusive: 7.94 µM [fluorescent, side channel, full curve]",
C/C(=N\NC(=O)c1ccc(F)cc1)c1ccccn1,,inactive: -9.57%
CC(C)c1nc2sc3c(NCc4ccco4)ncnc3c2c2c1COC(C)(C)C2,,inactive: 9.07%
CCCc1cc(=O)oc2c3c(c(Cl)cc12)OCN(CCCO)C3,"inconclusive: 89.1 µM [inhibitor, single point]",
Cc1nn(C(C)C)c(C)c1CN1CCC(C(=O)Nc2cccc(-c3cccc(F)c3)c2)CC1,"inconclusive: 10 µM [quencher, side channel, single point]",
COC(=O)c1c(C(=O)OC)c(-c2cccc(C)c2)n2c1CS(=O)C2 (configuration not stated),"inconclusive: 2.51 µM [quencher, side channel, full curve]",

# Arranged by molar mass (low to high): some entries from above
SMILES,Potency,"activity change, negative = inhibition"
COC(=O)c1c(C(=O)OC)c(-c2cccc(C)c2)n2c1CS(=O)C2 (configuration not stated),"inconclusive: 2.51 µM [quencher, side channel, full curve]",
COc1ccc(NCC(=O)Nc2ccc(Br)cc2F)c(OC)c1,,inactive: -8.99%
CC(C)c1nc2sc3c(NCc4ccco4)ncnc3c2c2c1COC(C)(C)C2,,inactive: 9.07%
